Laboratory results taken from the supplement of paper PMC10849652.
The other results are listed elsewhere or left out.

Sequences of proteins named here, by UniProt entry; tags and fusion partners are left off. A change or cut given only in a name is not applied to a line headed by its entry.
UniProt Q8WWY3: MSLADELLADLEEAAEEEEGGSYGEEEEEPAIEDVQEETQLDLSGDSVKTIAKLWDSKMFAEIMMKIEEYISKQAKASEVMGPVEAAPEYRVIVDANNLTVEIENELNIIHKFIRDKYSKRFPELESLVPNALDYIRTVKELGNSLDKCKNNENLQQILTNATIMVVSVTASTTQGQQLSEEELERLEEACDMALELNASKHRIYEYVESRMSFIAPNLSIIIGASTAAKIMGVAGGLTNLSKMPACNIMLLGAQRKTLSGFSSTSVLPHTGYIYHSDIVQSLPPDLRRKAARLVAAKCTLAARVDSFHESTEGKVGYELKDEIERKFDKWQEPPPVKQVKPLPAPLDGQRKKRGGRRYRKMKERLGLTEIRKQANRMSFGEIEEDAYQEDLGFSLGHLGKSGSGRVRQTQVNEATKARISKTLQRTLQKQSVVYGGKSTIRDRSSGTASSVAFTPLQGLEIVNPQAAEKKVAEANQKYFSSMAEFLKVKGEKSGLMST
UniProt P49593: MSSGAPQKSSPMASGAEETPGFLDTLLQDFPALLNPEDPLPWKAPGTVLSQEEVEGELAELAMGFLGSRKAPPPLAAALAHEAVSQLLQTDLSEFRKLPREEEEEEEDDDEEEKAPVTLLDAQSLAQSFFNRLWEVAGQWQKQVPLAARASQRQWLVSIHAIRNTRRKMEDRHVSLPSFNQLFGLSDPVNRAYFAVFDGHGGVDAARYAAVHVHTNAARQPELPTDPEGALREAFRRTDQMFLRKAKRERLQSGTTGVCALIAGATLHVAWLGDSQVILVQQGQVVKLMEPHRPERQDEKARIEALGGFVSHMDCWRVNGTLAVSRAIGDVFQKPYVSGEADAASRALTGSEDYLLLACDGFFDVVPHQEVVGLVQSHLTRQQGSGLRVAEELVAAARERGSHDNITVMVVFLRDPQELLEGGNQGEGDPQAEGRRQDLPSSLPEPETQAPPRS
UniProt Q92733: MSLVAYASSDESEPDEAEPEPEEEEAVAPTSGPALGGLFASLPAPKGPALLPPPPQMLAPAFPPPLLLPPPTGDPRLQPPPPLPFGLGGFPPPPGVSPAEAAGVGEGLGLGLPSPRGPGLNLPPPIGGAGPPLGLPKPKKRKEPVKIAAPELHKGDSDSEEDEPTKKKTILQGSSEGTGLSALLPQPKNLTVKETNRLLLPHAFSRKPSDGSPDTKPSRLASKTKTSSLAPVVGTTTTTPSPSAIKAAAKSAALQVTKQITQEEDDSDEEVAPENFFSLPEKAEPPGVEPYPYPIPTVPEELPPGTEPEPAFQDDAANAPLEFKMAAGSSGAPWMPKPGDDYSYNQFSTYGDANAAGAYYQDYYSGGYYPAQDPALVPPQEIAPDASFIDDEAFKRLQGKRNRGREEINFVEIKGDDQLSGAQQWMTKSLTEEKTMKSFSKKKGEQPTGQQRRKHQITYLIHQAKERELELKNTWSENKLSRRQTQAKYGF
UniProt P49642: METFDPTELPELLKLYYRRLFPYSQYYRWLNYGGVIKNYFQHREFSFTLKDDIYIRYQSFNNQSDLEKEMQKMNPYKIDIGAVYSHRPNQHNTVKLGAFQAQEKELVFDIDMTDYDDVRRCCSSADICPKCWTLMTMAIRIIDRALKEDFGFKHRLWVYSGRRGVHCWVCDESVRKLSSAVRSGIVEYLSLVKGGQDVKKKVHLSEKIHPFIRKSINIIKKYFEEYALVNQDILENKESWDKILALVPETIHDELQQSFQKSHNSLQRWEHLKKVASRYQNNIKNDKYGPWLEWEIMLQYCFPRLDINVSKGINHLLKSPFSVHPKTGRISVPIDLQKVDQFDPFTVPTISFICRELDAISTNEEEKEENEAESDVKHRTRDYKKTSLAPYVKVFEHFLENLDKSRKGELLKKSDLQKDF
UniProt P35813: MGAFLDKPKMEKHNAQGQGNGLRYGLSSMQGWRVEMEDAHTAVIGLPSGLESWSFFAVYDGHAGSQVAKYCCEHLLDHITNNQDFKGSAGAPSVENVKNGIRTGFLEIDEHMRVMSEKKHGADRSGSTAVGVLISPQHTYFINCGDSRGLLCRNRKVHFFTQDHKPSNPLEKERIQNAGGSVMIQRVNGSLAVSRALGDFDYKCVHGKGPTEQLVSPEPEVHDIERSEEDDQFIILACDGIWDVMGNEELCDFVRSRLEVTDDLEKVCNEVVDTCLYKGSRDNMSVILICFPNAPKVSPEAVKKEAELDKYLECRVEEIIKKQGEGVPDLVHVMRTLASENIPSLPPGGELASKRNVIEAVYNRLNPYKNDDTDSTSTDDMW
UniProt Q9Y3C6: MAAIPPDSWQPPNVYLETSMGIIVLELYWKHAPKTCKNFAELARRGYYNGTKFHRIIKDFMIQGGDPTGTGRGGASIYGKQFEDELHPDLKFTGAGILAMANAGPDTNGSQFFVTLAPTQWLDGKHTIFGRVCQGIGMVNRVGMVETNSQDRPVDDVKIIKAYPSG
UniProt Q96QC0: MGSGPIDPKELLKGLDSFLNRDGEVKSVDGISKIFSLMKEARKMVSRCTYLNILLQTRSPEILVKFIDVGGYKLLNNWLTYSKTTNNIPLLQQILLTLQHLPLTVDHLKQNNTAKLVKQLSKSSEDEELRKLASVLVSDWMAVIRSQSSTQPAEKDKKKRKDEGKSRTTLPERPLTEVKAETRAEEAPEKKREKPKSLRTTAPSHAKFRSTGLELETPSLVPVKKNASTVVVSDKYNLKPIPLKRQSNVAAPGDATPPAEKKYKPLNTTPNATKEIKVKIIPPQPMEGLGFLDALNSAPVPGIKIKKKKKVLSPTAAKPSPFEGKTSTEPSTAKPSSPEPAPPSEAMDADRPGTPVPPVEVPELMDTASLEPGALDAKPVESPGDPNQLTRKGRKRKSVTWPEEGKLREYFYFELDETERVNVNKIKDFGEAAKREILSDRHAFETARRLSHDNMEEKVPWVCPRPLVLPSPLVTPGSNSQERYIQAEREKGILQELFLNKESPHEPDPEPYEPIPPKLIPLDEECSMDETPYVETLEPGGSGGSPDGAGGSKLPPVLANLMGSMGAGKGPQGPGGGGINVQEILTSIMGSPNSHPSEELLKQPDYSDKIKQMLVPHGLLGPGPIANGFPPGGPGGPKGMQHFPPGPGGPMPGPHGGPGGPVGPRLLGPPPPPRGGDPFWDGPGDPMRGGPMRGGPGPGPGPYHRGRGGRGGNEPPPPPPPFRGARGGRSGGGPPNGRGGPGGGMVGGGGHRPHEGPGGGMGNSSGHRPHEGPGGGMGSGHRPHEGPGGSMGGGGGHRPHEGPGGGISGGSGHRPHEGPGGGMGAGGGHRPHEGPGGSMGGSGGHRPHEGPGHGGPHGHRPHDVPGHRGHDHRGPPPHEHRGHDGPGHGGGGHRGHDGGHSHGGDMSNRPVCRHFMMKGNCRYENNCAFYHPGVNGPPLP
UniProt P14314: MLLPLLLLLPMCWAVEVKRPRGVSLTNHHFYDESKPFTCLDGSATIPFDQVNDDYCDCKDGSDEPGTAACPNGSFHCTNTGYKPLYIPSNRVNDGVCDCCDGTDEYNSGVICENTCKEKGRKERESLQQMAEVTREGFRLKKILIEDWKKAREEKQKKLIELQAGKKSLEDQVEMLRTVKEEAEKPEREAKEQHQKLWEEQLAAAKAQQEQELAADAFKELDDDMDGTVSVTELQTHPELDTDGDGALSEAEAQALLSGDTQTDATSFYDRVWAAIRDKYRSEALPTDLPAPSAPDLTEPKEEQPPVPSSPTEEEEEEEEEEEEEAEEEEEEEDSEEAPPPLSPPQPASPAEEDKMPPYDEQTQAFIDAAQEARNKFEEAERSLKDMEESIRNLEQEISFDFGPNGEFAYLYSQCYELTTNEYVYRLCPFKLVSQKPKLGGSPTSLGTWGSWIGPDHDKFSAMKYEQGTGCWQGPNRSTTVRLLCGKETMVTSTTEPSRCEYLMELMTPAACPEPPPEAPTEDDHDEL
UniProt O43447: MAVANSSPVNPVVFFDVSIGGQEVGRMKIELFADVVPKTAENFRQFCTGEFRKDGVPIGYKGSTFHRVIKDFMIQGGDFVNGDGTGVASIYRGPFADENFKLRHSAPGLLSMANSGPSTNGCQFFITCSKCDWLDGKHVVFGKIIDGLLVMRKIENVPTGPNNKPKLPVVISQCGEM
UniProt Q12972: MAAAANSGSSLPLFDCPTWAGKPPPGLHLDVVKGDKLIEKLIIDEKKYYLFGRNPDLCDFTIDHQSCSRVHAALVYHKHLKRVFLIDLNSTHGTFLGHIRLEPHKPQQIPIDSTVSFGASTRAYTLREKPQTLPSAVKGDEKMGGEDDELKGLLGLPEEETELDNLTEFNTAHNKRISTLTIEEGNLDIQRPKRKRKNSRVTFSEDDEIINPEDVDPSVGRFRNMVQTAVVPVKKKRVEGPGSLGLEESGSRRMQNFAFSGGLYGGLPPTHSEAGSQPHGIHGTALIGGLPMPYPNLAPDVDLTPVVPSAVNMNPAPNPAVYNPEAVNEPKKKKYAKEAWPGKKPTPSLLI
UniProt P62714, whole entry, looked up: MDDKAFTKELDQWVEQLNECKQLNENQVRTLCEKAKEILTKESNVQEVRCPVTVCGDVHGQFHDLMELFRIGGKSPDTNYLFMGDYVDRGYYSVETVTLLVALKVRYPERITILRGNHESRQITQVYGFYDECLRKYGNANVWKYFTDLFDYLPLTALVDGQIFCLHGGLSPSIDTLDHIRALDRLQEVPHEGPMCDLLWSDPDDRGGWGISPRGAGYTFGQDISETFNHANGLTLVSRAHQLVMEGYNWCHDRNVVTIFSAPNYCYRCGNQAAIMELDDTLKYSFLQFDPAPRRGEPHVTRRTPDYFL
UniProt Q9NY27: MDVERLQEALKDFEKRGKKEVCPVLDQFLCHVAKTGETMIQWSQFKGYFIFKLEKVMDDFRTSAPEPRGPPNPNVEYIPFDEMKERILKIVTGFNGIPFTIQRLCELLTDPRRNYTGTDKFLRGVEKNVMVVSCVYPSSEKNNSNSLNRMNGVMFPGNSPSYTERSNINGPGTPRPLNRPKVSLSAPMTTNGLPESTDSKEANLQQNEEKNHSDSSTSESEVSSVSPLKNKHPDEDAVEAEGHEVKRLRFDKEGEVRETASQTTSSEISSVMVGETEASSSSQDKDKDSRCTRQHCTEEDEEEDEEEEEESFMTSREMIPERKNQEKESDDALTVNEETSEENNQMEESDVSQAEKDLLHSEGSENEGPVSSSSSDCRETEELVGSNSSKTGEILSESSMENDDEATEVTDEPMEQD
UniProt Q9ULJ8: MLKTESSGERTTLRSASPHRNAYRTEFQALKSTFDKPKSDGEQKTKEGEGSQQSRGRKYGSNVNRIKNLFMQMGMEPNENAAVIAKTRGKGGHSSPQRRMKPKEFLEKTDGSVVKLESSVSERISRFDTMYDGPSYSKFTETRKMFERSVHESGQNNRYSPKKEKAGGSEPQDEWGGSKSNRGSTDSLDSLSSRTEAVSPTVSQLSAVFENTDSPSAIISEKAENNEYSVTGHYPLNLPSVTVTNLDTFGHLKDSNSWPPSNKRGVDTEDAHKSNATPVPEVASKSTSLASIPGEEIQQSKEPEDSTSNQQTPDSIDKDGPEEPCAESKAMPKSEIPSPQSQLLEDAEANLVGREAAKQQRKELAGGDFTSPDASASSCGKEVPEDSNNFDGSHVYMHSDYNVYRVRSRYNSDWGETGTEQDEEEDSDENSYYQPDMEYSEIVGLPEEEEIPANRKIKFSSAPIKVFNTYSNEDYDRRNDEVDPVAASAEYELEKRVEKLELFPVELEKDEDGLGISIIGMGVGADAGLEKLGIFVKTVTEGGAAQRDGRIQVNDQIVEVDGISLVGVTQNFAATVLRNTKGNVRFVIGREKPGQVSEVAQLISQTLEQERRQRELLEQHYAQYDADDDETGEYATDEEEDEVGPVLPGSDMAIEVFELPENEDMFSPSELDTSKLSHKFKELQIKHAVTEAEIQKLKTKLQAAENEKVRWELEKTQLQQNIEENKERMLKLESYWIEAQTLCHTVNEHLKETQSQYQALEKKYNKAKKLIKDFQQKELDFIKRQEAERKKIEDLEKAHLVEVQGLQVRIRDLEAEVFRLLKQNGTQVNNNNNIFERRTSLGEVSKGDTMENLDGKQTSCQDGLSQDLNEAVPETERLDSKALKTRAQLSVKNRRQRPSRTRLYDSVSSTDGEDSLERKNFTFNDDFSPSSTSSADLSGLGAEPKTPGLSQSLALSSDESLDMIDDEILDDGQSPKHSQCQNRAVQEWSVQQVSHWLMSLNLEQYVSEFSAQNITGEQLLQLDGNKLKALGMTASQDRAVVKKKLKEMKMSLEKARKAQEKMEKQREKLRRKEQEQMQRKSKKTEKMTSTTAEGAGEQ
UniProt Q06830: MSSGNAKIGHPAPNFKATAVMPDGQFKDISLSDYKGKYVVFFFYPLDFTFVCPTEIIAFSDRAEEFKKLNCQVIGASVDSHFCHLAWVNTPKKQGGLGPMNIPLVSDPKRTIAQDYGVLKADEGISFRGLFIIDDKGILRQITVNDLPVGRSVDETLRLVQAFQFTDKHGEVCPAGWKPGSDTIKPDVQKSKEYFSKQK

Tests used:
Assay in all cases: log2 fold change, soluble protein after heating vs DMSO (PISA); higher = thermal stabilisation; K562 lysate, 10 uM; active = over 0.2 and 3.5 SD of the protein, either way, in both replicates (recomputed)
[1] = compound: CS(=O)(=O)CCNCc1ccc(-c2ccc3ncnc(Nc4ccc(OCc5cccc(F)c5)c(Cl)c4)c3c2)o1 [lapatinib]
Summary of the method: (§1)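 Log-two fold change in thermal stability relative to solvent controls is reported from duplicates. For each sample, crude K562 extract from dounce-homogenised pellets in PBS pH 7.4 with 1 mM MgCl2, at 1 mg/mL protein, was treated with 10 μM compound for 30 min. Aliquots heated for 3 min across 48°C-58°C were pooled, brought to 0.5% NP-40 at 4°C and cleared at 21,000xg for 90 min. The supernatant was quantified by TMTpro 16plex LC-MS/MS with channel sums equalised.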

[2] = compound: CS(=O)(=O)N1CCN(Cc2cc3nc(-c4cccc5[nH]ncc45)nc(N4CCOCC4)c3s2)CC1 [pictilisib]
Summary of the method: as §1

[3] = compound: C[C@@H](Oc1cc(-c2cnn(C3CCNCC3)c2)cnc1N)c1c(Cl)ccc(F)c1Cl [crizotinib]
Summary of the method: as §1

[4] = compound: C[C@H](C1=CC=C(C=C1)C(=O)NC2=C3C=CNC3=NC=C2)N
Summary of the method: as §1

[5] = compound: C[C@H](Nc1ncnc2nc[nH]c12)c1cc2cccc(Cl)c2c(=O)n1-c1ccccc1 [duvelisib]
Summary of the method: as §1

[6] = compound: Cc1cc(Nc2cc(CN3CCOCC3)c3nc(C)c(Cc4ccc(Cl)cc4F)n3n2)n[nH]1 [gandotinib]
Summary of the method: as §1

[7] = compound: Cc1cc(Nc2cc(N3CCN(C)CC3)nc(Sc3ccc(NC(=O)C4CC4)cc3)n2)n[nH]1 [tozasertib]
Summary of the method: as §1

[8] = compound: Cc1ccc(-n2nc(C(C)(C)C)cc2NC(=O)Nc2ccc(OCCN3CCOCC3)c3ccccc23)cc1 [doramapimod]
Summary of the method: as §1

[9] = compound: Cc1ccc(NC(=O)c2ccc(CN3CC[C@H](N(C)C)C3)c(C(F)(F)F)c2)cc1Nc1nccc(-c2cncnc2)n1 [bafetinib]
Summary of the method: as §1

[10] = compound: Cc1cccc(CC(=O)N2CCc3c2ccc(-c2cn(C)c4ncnc(N)c24)c3F)n1
Summary of the method: as §1

[11] = compound: Cc1cn(-c2cc(NC(=O)c3ccc(C)c(Nc4nccc(-c5cccnc5)n4)c3)cc(C(F)(F)F)c2)cn1 [nilotinib]
Summary of the method: as §1

[12] = compound: Cc1nc(Nc2n[nH]c3c2CN(C(=O)N[C@H](CN(C)C)c2ccccc2)C3(C)C)c2sccc2n1
Summary of the method: as §1

[13] = compound: Cc1nc(Nc2ncc(C(=O)Nc3c(C)cccc3Cl)s2)cc(N2CCN(CCO)CC2)n1 [dasatinib]
Summary of the method: as §1

[14] = compound: Cc1ncc(-c2ccnc(Nc3ccc(S(C)(=O)=O)cc3)n2)n1C(C)C
Summary of the method: as §1

[15] = compound: Cn1cc(-c2ccc3c(c2)CCN3C(=O)Cc2cccc(C(F)(F)F)c2)c2c(N)ncnc21
Summary of the method: as §1

[16] = compound: Cn1cc(CNCC2CCN(c3ncc(C(=O)NO)cn3)CC2)c2ccccc21 [quisinostat]
Summary of the method: as §1

[17] = compound: Cn1cncc1[C@@](N)(c1ccc(Cl)cc1)c1ccc2c(c1)c(-c1cccc(Cl)c1)cc(=O)n2C [tipifarnib]
Summary of the method: as §1

[18] = compound: NC(=O)Nc1cc(-c2cccc(F)c2)sc1C(=O)N[C@H]1CCCNC1
Summary of the method: as §1

[19] = compound: NC(=O)c1cnc(N[C@@H]2CCCC[C@@H]2N)nc1Nc1cccc(-n2nccn2)c1
Summary of the method: as §1

[20] = compound: NC1(c2ccc(-c3nc4ccn5c(=O)[nH]nc5c4cc3-c3ccccc3)cc2)CCC1
Summary of the method: as §1

Measured: log2 fold change

PRPF31 (UniProt Q8WWY3)
inactive: [1] 0.013 | [2] 0.029 | [3] -0.014 | [4] 0.014 | [5] -0.017 | [6] -0.032 | [7] -0.008 | [8] 0.02 | [9] 0.017 | [10] -0.018 | [11] 0.004 | [12] -0.006 | [13] -0.01 | [14] -0.022 | [15] 0.024 | [16] -0.031 | [17] 0.022 | [18] 0.021 | [19] -0.016 | [20] -0.001

PPM1F (UniProt P49593)
inactive: [1] 0.012 | [2] 0 | [3] -0.004 | [4] 0.032 | [5] 0.024 | [6] -0.01 | [7] -0.002 | [8] -0.004 | [9] -0.017 | [10] 0.039 | [11] 0.031 | [12] -0.013 | [13] -0.015 | [14] 0.02 | [15] -0.001 | [16] 0.026 | [17] 0.015 | [18] -0.001 | [19] 0.028 | [20] 0.008

PRCC (UniProt Q92733)
inactive: [1] 0.01 | [2] 0.02 | [3] 0.023 | [4] -0.015 | [5] -0.023 | [6] 0.086 | [7] -0.057 | [8] 0.049 | [9] 0.028 | [10] -0.018 | [11] -0.005 | [12] 0.012 | [13] -0.014 | [14] 0.003 | [15] -0.028 | [16] -0.071 | [17] -0.035 | [18] -0.001 | [19] -0.048 | [20] 0.009

PRIM1 (UniProt P49642)
inactive: [1] -0.02 | [2] 0.023 | [3] -0.064 | [4] 0.024 | [5] 0.004 | [6] -0.099 | [7] 0.027 | [8] -0.022 | [9] -0.077 | [10] 0.007 | [11] 0 | [12] -0.011 | [13] -0.05 | [14] -0.006 | [15] 0.019 | [16] 0.014 | [17] -0.022 | [18] 0.028 | [19] 0.001 | [20] -0.031

PPM1A isoform 3 (UniProt P35813)
inactive: [1] 0.032 | [2] 0.065 | [3] -0.022 | [4] 0.012 | [5] -0.025 | [6] -0.086 | [7] 0.034 | [8] 0.023 | [9] -0.097 | [10] 0.002 | [11] -0.033 | [12] 0.024 | [13] 0.026 | [14] -0.042 | [15] 0.034 | [16] 0.022 | [17] -0.026 | [18] 0.016 | [19] 0.062 | [20] -0.043

PPIL1 (UniProt Q9Y3C6)
inactive: [1] -0.018 | [2] 0.011 | [3] -0.017 | [4] -0.01 | [5] -0.027 | [6] -0.046 | [7] 0.043 | [8] 0.029 | [9] 0.012 | [10] -0.022 | [11] -0.006 | [12] 0.025 | [13] -0.04 | [14] -0.019 | [15] 0.025 | [16] -0.041 | [17] 0 | [18] 0.016 | [19] 0.021 | [20] 0.069

PPP1R10 (UniProt Q96QC0)
inactive: [1] -0.013 | [2] -0.001 | [3] -0.003 | [4] 0.009 | [5] -0.011 | [6] 0.07 | [7] -0.023 | [8] 0.082 | [9] -0.079 | [10] 0.024 | [11] -0.021 | [12] 0.038 | [13] 0.01 | [14] 0.007 | [15] 0.007 | [16] 0.005 | [17] -0.068 | [18] 0.002 | [19] -0.041 | [20] 0.013

PRKCSH isoform 2 (UniProt P14314)
active: [4] -0.622
inactive: [1] 0.132 | [2] 0.072 | [3] -0.016 | [5] 0.174 | [6] 0.293 | [7] 0.092 | [8] 0.136 | [9] 0.055 | [10] 0.24 | [11] -0.004 | [12] 0.099 | [13] 0.088 | [14] 0.116 | [15] 0.003 | [16] -0.157 | [17] -0.081 | [18] -0.079 | [19] 0.038 | [20] -0.192

PPIH (UniProt O43447)
inactive: [1] -0.005 | [2] -0.012 | [3] -0.065 | [4] -0.005 | [5] -0.004 | [6] -0.026 | [7] 0.02 | [8] 0.029 | [9] 0.026 | [10] 0.022 | [11] 0.009 | [12] -0.013 | [13] 0.003 | [14] -0.026 | [15] 0.006 | [16] -0.043 | [17] 0 | [18] -0.022 | [19] 0.026 | [20] 0.021

PPIL4 (UniProt Q8WUA2)
inactive: [1] -0.018 | [2] 0.026 | [3] -0.014 | [4] -0.032 | [5] -0.003 | [6] 0.008 | [7] 0.033 | [8] 0.038 | [9] -0.023 | [10] 0.036 | [11] -0.019 | [12] 0.031 | [13] 0.052 | [14] -0.02 | [15] 0.013 | [16] -0.033 | [17] 0.009 | [18] -0.01 | [19] 0.012 | [20] -0.042

PPP1R8 (UniProt Q12972)
inactive: [1] 0.025 | [2] -0.008 | [3] 0.021 | [4] -0.236 | [5] -0.035 | [6] 0.108 | [7] -0.014 | [8] -0.011 | [9] -0.01 | [10] 0.091 | [11] 0.004 | [12] -0.011 | [13] 0.03 | [14] 0.034 | [15] 0.025 | [16] -0.023 | [17] 0.013 | [18] -0.007 | [19] 0.01 | [20] -0.024

PPP2CB (UniProt P62714)
inactive: [1] 0.006 | [2] 0.015 | [3] 0.01 | [4] -0.031 | [5] 0.011 | [6] 0.028 | [7] -0.024 | [8] 0.016 | [9] 0.005 | [10] 0.009 | [11] 0.036 | [12] 0.021 | [13] 0.025 | [14] 0.041 | [15] -0.021 | [16] 0.036 | [17] -0.022 | [18] -0.026 | [19] 0.002 | [20] -0.038

PPP4R2 (UniProt Q9NY27)
inactive: [1] 0.057 | [2] -0.003 | [3] 0.023 | [4] 0.159 | [5] 0.003 | [6] -0.011 | [7] -0.007 | [8] -0.022 | [9] 0.021 | [10] -0.048 | [11] 0.012 | [12] 0.018 | [13] 0.029 | [14] 0.005 | [15] -0.028 | [16] -0.009 | [17] -0.042 | [18] -0.011 | [19] 0.009 | [20] -0.01

PROCR (UniProt Q9UNN8)
inactive: [1] 0.042 | [2] -0.065 | [3] -0.012 | [4] -0.024 | [5] -0.045 | [6] 0.067 | [7] 0.018 | [8] 0.07 | [9] 0.171 | [10] 0.123 | [11] -0.26 | [12] -0.054 | [13] 0.049 | [14] -0.14 | [15] 0.165 | [16] 0.035 | [17] -0.102 | [18] -0.067 | [19] -0.003 | [20] -0.031

2 neighbouring records already listed:
PPP4R2 (UniProt Q9NY27)
inactive: [1] 0.057 | [2] -0.003 | [3] 0.023 | [4] 0.159 | [5] 0.003 | [6] -0.011 | [7] -0.007 | [8] -0.022 | [9] 0.021 | [10] -0.048 | [11] 0.012 | [12] 0.018 | [13] 0.029 | [14] 0.005 | [15] -0.028 | [16] -0.009 | [17] -0.042 | [18] -0.011 | [19] 0.009 | [20] -0.01

PROCR (UniProt Q9UNN8)
inactive: [1] 0.042 | [2] -0.065 | [3] -0.012 | [4] -0.024 | [5] -0.045 | [6] 0.067 | [7] 0.018 | [8] 0.07 | [9] 0.171 | [10] 0.123 | [11] -0.26 | [12] -0.054 | [13] 0.049 | [14] -0.14 | [15] 0.165 | [16] 0.035 | [17] -0.102 | [18] -0.067 | [19] -0.003 | [20] -0.031

(cont.)

PPP1R9A isoform 3 (UniProt Q9ULJ8)
inactive: [1] -0.012 | [2] -0.018 | [3] 0.016 | [4] -0.049 | [5] 0.077 | [6] -0.062 | [7] -0.164 | [8] 0.036 | [9] -0.057 | [10] 0.06 | [11] 0.006 | [12] -0.071 | [13] 0.019 | [14] -0.005 | [15] -0.045 | [16] -0.035 | [17] 0.022 | [18] -0.015 | [19] -0.052 | [20] 0.101

PRDX1 (UniProt Q06830)
inactive: [1] 0.009 | [2] 0.021 | [3] 0.034 | [4] -0.058 | [5] -0.002 | [6] 0.096 | [7] -0.014 | [8] -0.034 | [9] 0.035 | [10] 0.088 | [11] 0.003 | [12] 0.002 | [13] 0.024 | [14] -0.005 | [15] -0.042 | [16] 0.005 | [17] 0.01 | [18] 0.005 | [19] -0.019 | [20] -0.014
